{"source": "PubChem BioAssay AID1224828 (NIAID, 2016)", "test": "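Knock-downs that increase or decrease LPS-induced p65 nuclear translocation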 (primary screen)", "cells": "mouse RAW264.7 G9 macrophage reporter cells (GFP-p65, Tnf promoter-mCherry)", "knock-down reagent": "siRNA pool against mouse genes, 100 nM", "timing": "2 days siRNA transfection, then 40 min LPS before fixation", "challenge": "LPS (Salmonella minnesota R595) at 10 ng/ml", "measured": "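Microscopy ratio of nuclear to perinuclear-ring GFP-p65 signal, scaled to the plate median; gene score is the average of two replicate robust z-scores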", "reading the numbers": "p65 translocation robust z-score: higher = more nuclear NF-kappaB p65 after LPS than the plate median; nuclear/cytoplasmic p65 ratio: higher = more nuclear NF-kappaB p65", "active means": "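Called active when z exceeds 3.3 or falls under -1.56 (median of Tlr4 controls), giving activity score of at least 50; no calls for control wells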", "calls": "active = hit (p65 shift raised or lowered); inactive = no clear change", "note": "This is one part, drawn at random, of about 17,000 deposited reagents. 762 of all reagents (4.5%) were called active. 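Active calls include both raised and lowered p65 entry, mostly lowered; wells with fewer than 50 cells lack a z-score.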 Raw values vary from plate to plate and are shown uncorrected. Reagents against one gene are numbered here. No sequences are given here."}
{"gene": "Or6c69", "reagent": 1, "nuclear/cytoplasmic p65 ratio, rep 1": 1.38, "nuclear/cytoplasmic p65 ratio, rep 2": 1.18, "low cell count flag": "fewer than 50 cells per well; well left out of scoring", "Call": "inactive"}
{"gene": "Capza2", "reagent": 1, "p65 translocation robust z-score": -0.85, "nuclear/cytoplasmic p65 ratio, rep 1": 1.45, "nuclear/cytoplasmic p65 ratio, rep 2": 1.53, "low cell count flag": "enough cells to score", "Call": "inactive"}
{"gene": "Pals2", "reagent": 1, "p65 translocation robust z-score": 1.51, "nuclear/cytoplasmic p65 ratio, rep 1": 1.75, "nuclear/cytoplasmic p65 ratio, rep 2": 1.73, "low cell count flag": "enough cells to score", "Call": "inactive"}
{"gene": "Pals2", "reagent": 2, "p65 translocation robust z-score": 0.82, "nuclear/cytoplasmic p65 ratio, rep 1": 1.95, "nuclear/cytoplasmic p65 ratio, rep 2": 1.68, "low cell count flag": "enough cells to score", "Call": "inactive"}
{"gene": "Arrdc1", "reagent": 1, "p65 translocation robust z-score": 0.22, "nuclear/cytoplasmic p65 ratio, rep 1": 1.53, "nuclear/cytoplasmic p65 ratio, rep 2": 1.65, "low cell count flag": "enough cells to score", "Call": "inactive"}
{"gene": "Stxbp4", "reagent": 1, "p65 translocation robust z-score": -0.24, "nuclear/cytoplasmic p65 ratio, rep 1": 1.36, "nuclear/cytoplasmic p65 ratio, rep 2": 1.23, "low cell count flag": "enough cells to score", "Call": "inactive"}
{"gene": "Stxbp4", "reagent": 2, "p65 translocation robust z-score": -0.64, "nuclear/cytoplasmic p65 ratio, rep 1": 1.26, "nuclear/cytoplasmic p65 ratio, rep 2": 1.39, "low cell count flag": "enough cells to score", "Call": "inactive"}
{"gene": "Adap1", "reagent": 1, "p65 translocation robust z-score": 0.27, "nuclear/cytoplasmic p65 ratio, rep 1": 1.62, "nuclear/cytoplasmic p65 ratio, rep 2": 1.85, "low cell count flag": "enough cells to score", "Call": "inactive"}
{"gene": "Pudp", "reagent": 1, "p65 translocation robust z-score": -0.88, "nuclear/cytoplasmic p65 ratio, rep 1": 1.34, "nuclear/cytoplasmic p65 ratio, rep 2": 1.24, "low cell count flag": "enough cells to score", "Call": "inactive"}

The list goes on; the last 2 above are carried over.
{"gene": "Adap1", "reagent": 1, "p65 translocation robust z-score": 0.27, "nuclear/cytoplasmic p65 ratio, rep 1": 1.62, "nuclear/cytoplasmic p65 ratio, rep 2": 1.85, "low cell count flag": "enough cells to score", "Call": "inactive"}
{"gene": "Pudp", "reagent": 1, "p65 translocation robust z-score": -0.88, "nuclear/cytoplasmic p65 ratio, rep 1": 1.34, "nuclear/cytoplasmic p65 ratio, rep 2": 1.24, "low cell count flag": "enough cells to score", "Call": "inactive"}
{"gene": "Psmc2", "reagent": 1, "nuclear/cytoplasmic p65 ratio, rep 1": 1.31, "nuclear/cytoplasmic p65 ratio, rep 2": 1.3, "low cell count flag": "fewer than 50 cells per well; well left out of scoring", "Call": "inactive"}
{"gene": "5031404N07", "reagent": 1, "nuclear/cytoplasmic p65 ratio, rep 1": 1.5, "nuclear/cytoplasmic p65 ratio, rep 2": 1.73, "low cell count flag": "fewer than 50 cells per well; well left out of scoring", "Call": "inactive"}
{"gene": "Pex11b", "reagent": 1, "p65 translocation robust z-score": 0, "nuclear/cytoplasmic p65 ratio, rep 1": 1.51, "nuclear/cytoplasmic p65 ratio, rep 2": 1.35, "low cell count flag": "enough cells to score", "Call": "inactive"}
{"gene": "Ccdc137", "reagent": 1, "nuclear/cytoplasmic p65 ratio, rep 1": 1.24, "nuclear/cytoplasmic p65 ratio, rep 2": 1.51, "low cell count flag": "fewer than 50 cells per well; well left out of scoring", "Call": "inactive"}
{"gene": "Slc17a6", "reagent": 1, "p65 translocation robust z-score": 1.39, "nuclear/cytoplasmic p65 ratio, rep 1": 1.44, "nuclear/cytoplasmic p65 ratio, rep 2": 1.42, "low cell count flag": "enough cells to score", "Call": "inactive"}
{"gene": "Smox", "reagent": 1, "nuclear/cytoplasmic p65 ratio, rep 1": 0, "nuclear/cytoplasmic p65 ratio, rep 2": 1.51, "low cell count flag": "fewer than 50 cells per well; well left out of scoring", "Call": "inactive"}
{"gene": "Duoxa2", "reagent": 1, "p65 translocation robust z-score": -0.6, "nuclear/cytoplasmic p65 ratio, rep 1": 1.34, "nuclear/cytoplasmic p65 ratio, rep 2": 1.47, "low cell count flag": "enough cells to score", "Call": "inactive"}
{"gene": "Stxbp6", "reagent": 1, "p65 translocation robust z-score": -0.15, "nuclear/cytoplasmic p65 ratio, rep 1": 1.32, "nuclear/cytoplasmic p65 ratio, rep 2": 1.21, "low cell count flag": "enough cells to score", "Call": "inactive"}
{"gene": "Exd1", "reagent": 1, "p65 translocation robust z-score": -1.25, "nuclear/cytoplasmic p65 ratio, rep 1": 1.14, "nuclear/cytoplasmic p65 ratio, rep 2": 1.13, "low cell count flag": "enough cells to score", "Call": "inactive"}
{"gene": "Shroom3", "reagent": 1, "nuclear/cytoplasmic p65 ratio, rep 1": 1.28, "nuclear/cytoplasmic p65 ratio, rep 2": 1.2, "low cell count flag": "fewer than 50 cells per well; well left out of scoring", "Call": "inactive"}
{"gene": "Ocstamp", "reagent": 1, "p65 translocation robust z-score": -0.78, "nuclear/cytoplasmic p65 ratio, rep 1": 1.11, "nuclear/cytoplasmic p65 ratio, rep 2": 1.17, "low cell count flag": "enough cells to score", "Call": "inactive"}
{"gene": "Hoxb1", "reagent": 1, "p65 translocation robust z-score": -0.16, "nuclear/cytoplasmic p65 ratio, rep 1": 1.4, "nuclear/cytoplasmic p65 ratio, rep 2": 1.37, "low cell count flag": "enough cells to score", "Call": "inactive"}
